Source: PubChem BioAssay AID720630 (Broad Institute, 2013)
This list was built around the results that the source calls inconclusive (neither active nor inactive); the mix of calls is not that of the screen. The source made the active and inactive calls. The rule behind the calls is not given here.

Assay: HUVEC apoptotic caspase activation, HRAS target ID – cell-based, multiple timepoints, luminescence, dry powder, mechanism study for HRAS target identification, dose response (AID 720630)
Settings: HUVEC apoptosis, caspase-3/7 luminescence; at 35 µM (top of the series)

CC(C)(C)OC(=O)NCCOCCOCCOc1ccc(N(C(=O)CCl)C(C(=O)NCCc2ccccc2)c2cccs2)cc1Cl (configuration not stated)
caspase activation: inconclusive: 10.3%

COc1cccc2c1C(=O)c1c(O)c3c(c(O)c1C2=O)C[C@@](O)(C(=O)CO)C[C@@H]3OC1C[C@H](N)[C@H](O)[C@H](C)O1 (some centres not stated)
caspase activation: inconclusive: -3.67%

CO[C@H]1C[C@@H]2CC[C@@H](C)[C@@](O)(O2)C(=O)C(=O)N2CCCC[C@H]2C(=O)O[C@H]([C@H](C)C[C@@H]2CC[C@@H](O)[C@H](OC)C2)CC(=O)[C@H](C)/C=C(\C)[C@@H](O)[C@@H](OC)C(=O)[C@H](C)C[C@H](C)/C=C/C=C/C=C/1C
caspase activation: inconclusive: 22.2%

CCC(=O)N(c1ccc(OC)c(Cl)c1)C(C(=O)NCCc1ccccc1)c1cccs1 (configuration not stated)
caspase activation: inactive: 8.9%

Cc1onc(C(=O)N2CCN(C(c3ccc(Cl)cc3)c3ccc(OCCOCCOCCNC(=O)OC(C)(C)C)cc3)CC2)c1[N+](=O)[O-] (configuration not stated)
caspase activation: inconclusive: -6.19%

O=C(NCCOCCOCCOc1ccc(N(C(=O)CCl)C(C(=O)NCCc2ccccc2)c2cccs2)cc1Cl)c1ccc(COC2C#CCCCCC2)cc1 (configuration not stated)
caspase activation: inconclusive: 4.64%

Cc1onc(C(=O)N2CCN(C(c3ccc(Cl)cc3)c3ccc(Cl)cc3)CC2)c1[N+](=O)[O-]
caspase activation: inactive: -6.38%
